Measurements taken from publication PMC11271488, “The AKT2/SIRT5/TFEB pathway as a potential therapeutic target in non-neovascular AMD” (Nature Communications, 2024).
These are yes or no findings as the source states them, for the method shown. For some of these results: In cells and extracts the contact can be indirect. Some entries that bind do so weakly or less than the wild type. For some of these results: Tags and fused reporters may be left off the sequences shown.

Sequences of proteins named here, by UniProt entry; tags and fusion partners are left off. Residues count along the entry.
UniProt Q9NXA8, residues 37-310: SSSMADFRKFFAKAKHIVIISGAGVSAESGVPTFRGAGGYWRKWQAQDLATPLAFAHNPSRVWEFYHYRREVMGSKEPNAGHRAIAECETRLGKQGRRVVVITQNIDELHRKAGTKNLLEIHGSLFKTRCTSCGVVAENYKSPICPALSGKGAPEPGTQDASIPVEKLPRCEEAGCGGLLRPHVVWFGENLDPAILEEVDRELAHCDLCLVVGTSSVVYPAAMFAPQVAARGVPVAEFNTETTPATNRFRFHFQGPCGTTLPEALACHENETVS

Legend:
[1] = target: HA-SIRT5 (human) (UniProt Q9NXA8); assay: co-IP; lysates of ARPE19 cells overexpressing SIRT5-HA and AKT2-GFP, 48 h after transfection; pulldown with anti-HA antibody (anti-IgG as control), western blot
[2] = target: EGFP-AKT2 (human) (UniProt P31751); assay: co-IP; called a pulldown assay; AKT2 complex with secretory autophagy proteins, with or without SIRT5 overexpression; bait, cells and beads told only in Supplementary Fig. 9 (not shown)
[3] = target: Sirtuin 5 (SIRT5), on the HuProt v3.1 human proteome array (human) (UniProt Q9NXA8); assay: peptide or protein array; HuProt v3.1 human proteome array probed with recombinant AKT2 at 1 ug/mL; GenePix analysis; only interactions with a Z-score above 6 considered; both purified

Row | binding [2] | Molecule | further results
1 | – | EGFP-AKT2 (from UniProt P31751 1-481) (enzyme) | binding [1]: binds
2 | binds | Synaptotagmin Like 1 (SYTL1), found in the AKT2 pulldown (protein, UniProt Q8IYJ3 1-562) MPQRGHPSQEGLWALPSLPMAHGPKPETEGLLDLSFLTEEEQEAIAGVLQRDARLRQLEEGRVSKLRASVADPGQLKILTGDWFQEARSQRHHNAHFGSDLVRASMRRKKSTRGDQAPGHDREAEAAVKEKEEGPEPRLTIDEAPQERLRETEGPDFPSPSVPLKASDPEEASQAQEDPGQGDQQVCAEEADPELEPASGGEQEPRPQQAQTKAASQILENGEEAPGPDPSLDRMLSSSSSVSSLNSSTLSGSQMSLSGDAEAVQVRGSVHFALHYEPGAAELRVHVIQCQGLAAARRRRSDPYVKSYLLPDKQSKRKTAVKKRNLNPVFNETLRYSVPQAELQGRVLSLSVWHRESLGRNIFLGEVEVPLDTWDWGSEPTWLPLQPRVPPSPDDLPSRGLLALSLKYVPAGSEGAGLPPSGELHFWVKEARDLLPLRAGSLDTYVQCFVLPDDSQASRQRTRVVRRSLSPVFNHTMVYDGFGPADLRQACAELSLWDHGALANRQLGGTRLSLGTGSSYGLQVPWMDSTPEEKQLWQALLEQPCEWVDGLLPLRTNLAPRT | –
3 | – | recombinant AKT2 (RAC-beta serine/threonine-protein kinase) (enzyme, human, UniProt P31751 1-481, looked up, AKT2, RAC-beta serine/threonine-protein kinase; recombinant protein used as the probe on the HuProt v3.1 array; source: recombinant) MNEVSVIKEGWLHKRGEYIKTWRPRYFLLKSDGSFIGYKERPEAPDQTLPPLNNFSVAECQLMKTERPRPNTFVIRCLQWTTVIERTFHVDSPDEREEWMRAIQMVANSLKQRAPGEDPMDYKCGSPSDSSTTEEMEVAVSKARAKVTMNDFDYLKLLGKGTFGKVILVREKATGRYYAMKILRKEVIIAKDEVAHTVTESRVLQNTRHPFLTALKYAFQTHDRLCFVMEYANGGELFFHLSRERVFTEERARFYGAEIVSALEYLHSRDVVYRDIKLENLMLDKDGHIKITDFGLCKEGISDGATMKTFCGTPEYLAPEVLEDNDYGRAVDWWGLGVVMYEMMCGRLPFYNQDHERLFELILMEEIRFPRTLSPEAKSLLAGLLKKDPKQRLGGGPSDAKEVMEHRFFLSINWQDVVQKKLLPPFKPQVTSEVDTRYFDDEFTAQSITITPPDRYDSLGLLELDQRTHFPQFSYSASIRE | binding [3]: binds
4 | binds | synaptosome-associated protein 23 (SNAP23) (protein, UniProt O00161 1-211) MDNLSSEEIQQRAHQITDESLESTRRILGLAIESQDAGIKTITMLDEQKEQLNRIEEGLDQINKDMRETEKTLTELNKCCGLCVCPCNRTKNFESGKAYKTTWGDGGENSPCNVVSKQPGPVTNGQLQQPTTGAASGGYIKRITNDAREDEMEENLTQVGSILGNLKDMALNIGNEIDAQNPQIKRITDKADTNRDRIDIANARAKKLIDS | –
